The test has as its target T1, Epstein-Barr virus (EBV) BGLF2 protein, FLAG-tagged (Epstein-Barr virus) (UniProt P0CK53).
T1 sequence: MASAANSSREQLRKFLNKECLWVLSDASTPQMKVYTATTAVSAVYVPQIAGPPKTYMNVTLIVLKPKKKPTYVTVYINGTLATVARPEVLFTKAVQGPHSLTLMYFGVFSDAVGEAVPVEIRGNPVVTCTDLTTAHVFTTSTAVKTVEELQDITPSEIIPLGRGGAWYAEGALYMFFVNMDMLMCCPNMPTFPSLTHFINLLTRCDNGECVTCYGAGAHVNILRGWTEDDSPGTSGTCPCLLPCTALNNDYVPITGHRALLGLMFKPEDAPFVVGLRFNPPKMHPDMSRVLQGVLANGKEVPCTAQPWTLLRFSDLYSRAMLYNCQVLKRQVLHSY
Briefly: affinity purification with mass spectrometry; BGLF2-FLAG expressed in 293T cells, recovered on M2 anti-FLAG resin from lysate in modified RIPA buffer (250 mM NaCl), 4 h at 4°C; co-purifying proteins by LC-MS/MS; two experiments, compared with empty FLAG plasmid and the CRAPome.

These are yes or no findings as the source states them, for the method shown. Binding seen in cells or lysates may run through a third protein. Here binding means that the protein was enriched with, or labelled near, the bait; the list need not be complete. Where a sequence is shown, tags or fusion partners need not be part of it.

B1: NFATC4 (protein, UniProt Q14934 1-902)
chain: MGAASCEDEELEFKLVFGEEKEAPPLGAGGLGEELDSEDAPPCCRLALGEPPPYGAAPIGIPRPPPPRPGMHSPPPRPAPSPGTWESQPARSVRLGGPGGGAGGAGGGRVLECPSIRITSISPTPEPPAALEDNPDAWGDGSPRDYPPPEGFGGYREAGGQGGGAFFSPSPGSSSLSSWSFFSDASDEAALYAACDEVESELNEAASRFGLGSPLPSPRASPRPWTPEDPWSLYGPSPGGRGPEDSWLLLSAPGPTPASPRPASPCGKRRYSSSGTPSSASPALSRRGSLGEEGSEPPPPPPLPLARDPGSPGPFDYVGAPPAESIPQKTRRTSSEQAVALPRSEEPASCNGKLPLGAEESVAPPGGSRKEVAGMDYLAVPSPLAWSKARIGGHSPIFRTSALPPLDWPLPSQYEQLELRIEVQPRAHHRAHYETEGSRGAVKAAPGGHPVVKLLGYSEKPLTLQMFIGTADERNLRPHAFYQVHRITGKMVATASYEAVVSGTKVLEMTLLPENNMAANIDCAGILKLRNSDIELRKGETDIGRKNTRVRLVFRVHVPQGGGKVVSVQAASVPIECSQRSAQELPQVEAYSPSACSVRGGEELVLTGSNFLPDSKVVFIERGPDGKLQWEEEATVNRLQSNEVTLTLTVPEYSNKRVSRPVQVYFYVSNGRRKRSPTQSFRFLPVICKEEPLPDSSLRGFPSASATPFGTDMDFSPPRPPYPSYPHEDPACETPYLSEGFGYGMPPLYPQTGPPPSYRPGLRMFPETRGTTGCAQPPAVSFLPRPFPSDPYGGRGSSFSLGLPFSPPAPFRPPPLPASPPLEGPFPSQSDVHPLPAEGYNKVGPGYGPGEGAPEQEKSRGGYSSGFRDSVPIQGITLEEVSEIIGRDLSGFPAPPGEEPPA
Take B1: the binding entry is reported as “binds”.

B2: SCYL1 (protein, UniProt Q96KG9 1-808)
chain: MWFFARDPVRDFPFELIPEPPEGGLPGPWALHRGRKKATGSPVSIFVYDVKPGAEEQTQVAKAAFKRFKTLRHPNILAYIDGLETEKCLHVVTEAVTPLGIYLKARVEAGGLKELEISWGLHQIVKALSFLVNDCSLIHNNVCMAAVFVDRAGEWKLGGLDYMYSAQGNGGGPPRKGIPELEQYDPPELADSSGRVVREKWSADMWRLGCLIWEVFNGPLPRAAALRNPGKIPKTLVPHYCELVGANPKVRPNPARFLQNCRAPGGFMSNRFVETNLFLEEIQIKEPAEKQKFFQELSKSLDAFPEDFCRHKVLPQLLTAFEFGNAGAVVLTPLFKVGKFLSAEEYQQKIIPVVVKMFSSTDRAMRIRLLQQMEQFIQYLDEPTVNTQIFPHVVHGFLDTNPAIREQTVKSMLLLAPKLNEANLNVELMKHFARLQAKDEQGPIRCNTTVCLGKIGSYLSASTRHRVLTSAFSRATRDPFAPSRVAGVLGFAATHNLYSMNDCAQKILPVLCGLTVDPEKSVRDQAFKAIRSFLSKLESVSEDPTQLEEVEKDVHAASSPGMGGAAASWAGWAVTGVSSLTSKLIRSHPTTAPTETNIPQRPTPEGVPAPAPTPVPATPTTSGHWETQEEDKDTAEDSSTADRWDDEDWGSLEQEAESVLAQQDDWSTGGQVSRASQVSNSDHKSSKSPESDWSSWEAEGSWEQGWQEPSSQEPPPDGTRLASEYNWGGPESSDKGDPFATLSARPSTQPRPDSWGEDNWEGLETDSRQVKAELARKKREERRREMEAKRAERKVAKGPMKLGARKLD
For B2, the binding result is listed as “binds”.

The values are drawn from PMC8782528.
